Measured values taken from the supplement of paper PMC12889115.
This is one part of the list. Values are raw readings; no control value is given beside them.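 Primary screen: polymyxin B was added at a level permeabilizing Salmonella outer membranes while sparing inner membranes. DMSO wells, both with and without polymyxin B, established maximum growth. Plate-to-plate variation meant each plate was ranked on its own, and the lowest-OD600 compounds were selected as hits.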

Tested on: Salmonella enterica serovar Typhimurium SL1344
Experiment: bacterial growth OD600 after 18 h with compound and polymyxin B; higher = more bacterial growth (less inhibition)
Details: 50 µM, Mueller-Hinton broth

Row | SMILES | bacterial growth OD600 (polymyxin B 1 µg/mL) | bacterial growth OD600 (polymyxin B 0.75 µg/mL)
1 | COc1ccc(S(=O)(=O)NCC2CCCN(C/C(C)=C/c3ccccc3)C2)cc1 (stereo unspecified) | 0.875 | –
2 | COc1ccc(C(=O)Nc2ccnn2C2CCN(C(=O)C3CCCC3)CC2)cc1 | 0.816 | –
3 | COc1cccc(-c2ccc(NC(=O)C3CCCN(C(=O)c4ccncc4)C3)cc2)c1 (stereo unspecified) | – | 0.408
4 | CCN1CCC(Oc2cc(OC)ccc2C(=O)N2CCCC2)CC1 | 1 | –
5 | Cc1nc(N2CCC(C(=O)N3CCCCC3c3nccn3C)CC2)nc2ccc(C(C)C)cc12 (stereo unspecified) | – | 0.034
6 | Cc1c(CC(=O)NCc2ccccn2)c2c(n1CC1CCCO1)CCCC2=O (stereo unspecified) | – | 0.853
7 | Cc1cc(C)c(CN2CC[C@@H](N3CCC(O)CC3)[C@H](O)C2)c(-n2cccn2)c1 | 0.951 | –
8 | O=C(NCC1(c2ccccc2)CCOCC1)c1cc(COc2ccccc2)[nH]n1 | 0.902 | –
9 | Cc1ncc(CNC2CC(=O)N(CCCc3ccccc3)C2)n1C (stereo unspecified) | 0.991 | –
10 | Cc1occc1C(=O)N1CCC(Oc2cccc(C(=O)NCc3ccccn3)c2)CC1 | – | 0.91
11 | c1ccc(NC2CCCN(C3C4CC5CC(C4)CC3C5)C2)cc1 (stereo unspecified) | 0.934 | –
12 | COc1cccc(C(=O)C2CCCN(Cc3ccc(C#CC(C)(C)O)s3)C2)c1 (stereo unspecified) | 1.02 | –
13 | CN1CCC(C(=O)NC2CCCc3nc(-c4cccnc4)ncc32)CC1 (stereo unspecified) | 0.953 | –
14 | COC(=O)CCC(=O)N1CCC(CCC(=O)NCc2cccnc2)CC1 | 0.842 | –
15 | O=C(Cn1cccn1)N1CCCC(CCc2ccc(F)cc2F)C1 (stereo unspecified) | – | 0.737
16 | O=C(Nc1ccnn1C1CCN(Cc2c[nH]nc2-c2ccccc2)CC1)c1ccccc1 | 1.07 | –

Full records, quoted from the list.
CN1CCC(C(=O)NC2CCCc3nc(-c4cccnc4)ncc32)CC1 (stereo unspecified) is entered as bacterial growth OD600 (polymyxin B 1 µg/mL): 0.953
COc1ccc(C(=O)Nc2ccnn2C2CCN(C(=O)C3CCCC3)CC2)cc1 is entered as bacterial growth OD600 (polymyxin B 1 µg/mL): 0.816

(more compounds)

Row | SMILES | bacterial growth OD600 (polymyxin B 1 µg/mL) | bacterial growth OD600 (polymyxin B 0.75 µg/mL)
17 | CCN1CC(CN(C)c2nc3nonc3nc2NCc2cccs2)CC1=O (stereo unspecified) | – | 0.809
18 | O=C(NCC1CCCN(C(=O)CCC(F)(F)F)C1)c1cccc2ccccc12 (stereo unspecified) | 0.776 | –
19 | CCOC(=O)C1(Cc2cccc(F)c2)CCN(C(=O)c2cccnc2)CC1 | 0.826 | –
20 | O=C(NCC1Cc2cc(-c3ccsc3)cc(Cl)c2O1)[C@H]1C[C@@H]2C=C[C@H]1C2 (stereo partly specified) | – | 0.563
21 | CC(C)Cc1nc2cc(NS(=O)(=O)N(C)C)cc(C(=O)N3CCCC(c4ccccc4)C3)c2n1C (stereo unspecified) | – | 0.008
22 | COc1cc(CN2CCN(Cc3cc(OC)ccc3F)CC2CCO)cc(OC)c1 (stereo unspecified) | 0.963 | –
23 | O=C1O[C@@H]2CN(c3ccnc(CO)c3)C[C@@H]2N1CCc1ccc(F)cc1 | – | 0.829
24 | COc1ccccc1CN1CCC(C(Cc2ccccc2Cl)N(C)C(=O)c2ccco2)CC1 (stereo unspecified) | – | 0.786
25 | COC(=O)CCCNc1nncc(-c2c(OC)cccc2OC)n1 | 0.863 | –
26 | COc1ccc(NC2CCCN(C(=O)C3=NNC(=O)CC3)C2)cc1 (stereo unspecified) | 0.875 | –
27 | OC1(Cc2cc(-c3ccccc3)no2)CCN(CCCC(F)(F)F)CC1 | 0.816 | –
28 | CCOC(=O)C1(Cc2ccccc2C)CCCN(C2CCOCC2)C1 (stereo unspecified) | 0.646 | –
29 | CN1CCN(Cc2cccc(OCC(O)CN(C)C3CCCCC3)c2)CC1 (stereo unspecified) | 0.89 | –
30 | COC(=O)[C@@H](C)NC(=O)c1cc(OC)ccc1OC1CCN(C(=O)C2CC2)CC1 | 1.13 | –
31 | O=C(c1cc(COc2cccc(F)c2)[nH]n1)N1CCC(N2CCSCC2)CC1 | 0.985 | –
